# Laboratory results: article PMC7819943, “Rice protein-binding microarrays: a tool to detect cis-acting elements near promoter regions in rice”
# By UniProt entry, the sequences of proteins in these tests, tags left out.
# UniProt Q0JBA9, entry or part of it: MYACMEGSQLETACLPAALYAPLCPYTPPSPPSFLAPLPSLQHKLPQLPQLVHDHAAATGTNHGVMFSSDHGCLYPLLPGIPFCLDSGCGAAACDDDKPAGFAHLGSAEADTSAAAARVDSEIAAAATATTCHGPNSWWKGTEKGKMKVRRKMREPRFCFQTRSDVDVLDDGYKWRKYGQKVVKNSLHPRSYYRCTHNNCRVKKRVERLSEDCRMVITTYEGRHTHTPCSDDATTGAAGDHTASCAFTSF
# The other results are listed elsewhere or left out.
# Target: OsWRKY34 (Oryza sativa, UniProt Q0JBA9 1-250)
# Assay: protein-binding microarray (RPBM); PBS, 2% BSA, 51.3 ng/ul salmon testes DNA, 50 uM zinc acetate, 200 nM TF, 25 C, 1 h; high values mean tight binding
# Conditions: protein: recombinant; tags: N-terminal polyhistidine and DsRed monomer fusion (pET32a); label: CyDye5-dUTP incorporated in the synthesized complementary strand; 3' TTTTT single-stranded linker to array surface; dsDNA, one strand shown
# Summary of the method: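 Transcription factors were made in E. coli BL21-CodonPlus as N-terminal fusions to a polyhistidine tag and DsRed, then purified on Ni–NTA. After primer extension with Cy5-dUTP and blocking with 2% BSA, a custom Agilent array was exposed for 1 h at 25 °C to 200 nM protein in PBS, 2% BSA, salmon testes DNA and 50 µM zinc acetate. Washed arrays were scanned on an Axon 4000B, and the binding signal is per-feature fluorescence intensity in arbitrary units.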
row,Sequence,binding signal
1,CCGGCCGCGCGCTCCTTTTCTAGCGCACGTTAGAAGCTTCCGGAGTCACCTAGTGCAG,8230 fluorescence intensity (a.u.)
2,CTATCCATCTACTGCAGTTTGCTCACTGGAAATGTTTTTCCGGAGTCACCTAGTGCAG,12000 fluorescence intensity (a.u.)
3,ACCCGACTCTCTACACTCTAAGTCTCTAGTCTCTACACGACGGAGTCACCTAGTGCAG,9720 fluorescence intensity (a.u.)
4,CGCGTGCATTTGCATCGTCGTTGTGTCATGTCGTCAAGCTCGGAGTCACCTAGTGCAG,8880 fluorescence intensity (a.u.)
5,GCACGCATGTGCCCACCCTGTCTGTCCCGATGTCCGTGGACGGAGTCACCTAGTGCAG,8650 fluorescence intensity (a.u.)
6,TGTATTAGCACTTTATGTCTGGTCCCATCTATTTTTTAATCGGAGTCACCTAGTGCAG,9920 fluorescence intensity (a.u.)
7,GCTATGGGTGTCTGGGTTGAATTGTTTATTTCCATAGAATCGGAGTCACCTAGTGCAG,8880 fluorescence intensity (a.u.)
8,AGGTGGAGGCGCCGGTGTGGGTGGTGGAGCGGGAGGAGGTCGGAGTCACCTAGTGCAG,8610 fluorescence intensity (a.u.)
9,AATTAGCCGCAACTTCGACTGGTCAGTTCTCACTATCGATCGGAGTCACCTAGTGCAG,9930 fluorescence intensity (a.u.)
10,ATCGGTGTTGACCTCCATATGCTGATCAGGCCCCATTTCCCGGAGTCACCTAGTGCAG,8140 fluorescence intensity (a.u.)
11,TCACACGGTTTTCGGTTGATGCCATGGTAACCGTCTTGCTCGGAGTCACCTAGTGCAG,8570 fluorescence intensity (a.u.)
12,CCGTTGCTCCCGTGCTCCCTGCGCGCCGCCATGTCCGCTCCGGAGTCACCTAGTGCAG,9990 fluorescence intensity (a.u.)
13,CACCTGGACTTGGATCATCACCTTAAGGTAATGCATACTTCGGAGTCACCTAGTGCAG,8650 fluorescence intensity (a.u.)
14,GGAGTGGGATGGCTCATTTGTCGACAGCTCCGCCACGAGGCGGAGTCACCTAGTGCAG,10500 fluorescence intensity (a.u.)
15,TTAGGTTTTGTTGATTTATTGCGTGATGATTTTATAGAAACGGAGTCACCTAGTGCAG,8990 fluorescence intensity (a.u.)
16,AATTTTGATAAATTTTGCATGGTTTTGTACGGTTTTTCACCGGAGTCACCTAGTGCAG,8080 fluorescence intensity (a.u.)
17,TATGTAGTTCTATTTAGGCCATATCACATCAATTATTTTTCGGAGTCACCTAGTGCAG,8360 fluorescence intensity (a.u.)
18,CTTCACTCCACATCTGTTTCCATCGCGAGCCACAGAGAGACGGAGTCACCTAGTGCAG,8900 fluorescence intensity (a.u.)
19,TTCGGCTCAGCCTGTAACATCTCGAACAGTCTCGTGCCCGCGGAGTCACCTAGTGCAG,9110 fluorescence intensity (a.u.)
20,GGTTTGGGCTGGAGTGGATGCGGGTTGGCCTGTGAAGACTCGGAGTCACCTAGTGCAG,10100 fluorescence intensity (a.u.)
21,GGATTTTAGTTTTTTGTTTTCAGTGGGATCTGGTTCATTGCGGAGTCACCTAGTGCAG,9630 fluorescence intensity (a.u.)
22,GAATGCGCCCGCCCAAACACCTTACTCCTATAGCTGCATCCGGAGTCACCTAGTGCAG,9140 fluorescence intensity (a.u.)
23,CCATTCAAACGGTCATCATCGTCATCTATATCTATACTAACGGAGTCACCTAGTGCAG,8310 fluorescence intensity (a.u.)
24,TGCTTCCGCCACCGCCACCGCCCAACGACCAGCAGCAAGCCGGAGTCACCTAGTGCAG,10200 fluorescence intensity (a.u.)
25,TAAAGCTTTATATAGCTGGCCCGCTGACTTTTTTATATATCGGAGTCACCTAGTGCAG,9020 fluorescence intensity (a.u.)
26,CCTTCTCTCACACACACTTTTTCTTCCTTCCCACTTTGCACGGAGTCACCTAGTGCAG,9700 fluorescence intensity (a.u.)
27,AATAGTTCATGCGTTTATATCTGCGTGTCTTTTTCAGCTCCGGAGTCACCTAGTGCAG,9190 fluorescence intensity (a.u.)

# Reformatted with tabs: part of the list above
row	Sequence	binding signal
23	CCATTCAAACGGTCATCATCGTCATCTATATCTATACTAACGGAGTCACCTAGTGCAG	8310 fluorescence intensity (a.u.)
24	TGCTTCCGCCACCGCCACCGCCCAACGACCAGCAGCAAGCCGGAGTCACCTAGTGCAG	10200 fluorescence intensity (a.u.)
25	TAAAGCTTTATATAGCTGGCCCGCTGACTTTTTTATATATCGGAGTCACCTAGTGCAG	9020 fluorescence intensity (a.u.)
27	AATAGTTCATGCGTTTATATCTGCGTGTCTTTTTCAGCTCCGGAGTCACCTAGTGCAG	9190 fluorescence intensity (a.u.)

# Additional records.

row,Sequence,binding signal
1,TGTTTCTCGGCTTCCGCTACACGCCTCGCCGACCACCATGCGGAGTCACCTAGTGCAG,13100 fluorescence intensity (a.u.)
2,ATGGAATCGATCACCTGCAATGCAACACCGTGCCATAATCCGGAGTCACCTAGTGCAG,8520 fluorescence intensity (a.u.)
3,CGTCGCTTGGGGTGGTGTTGGTGGTTCTGAATTTTGATTGCGGAGTCACCTAGTGCAG,19200 fluorescence intensity (a.u.)
4,TTTCAATTAATTTTCTGCAGTCGTACATACTTGCGTTTCTCGGAGTCACCTAGTGCAG,11400 fluorescence intensity (a.u.)
5,ACTGCAGTTATTACCAATTCTCTGCGCTGTGGTTGATCCACGGAGTCACCTAGTGCAG,8090 fluorescence intensity (a.u.)
6,TGGCTTTGGTTTTGGTTTGGTAAATTGGTTGCGTGTGCGTCGGAGTCACCTAGTGCAG,8570 fluorescence intensity (a.u.)
7,AAAGACACACCTTTCAACTTTCACCTTTTTACCACTTCAACGGAGTCACCTAGTGCAG,8060 fluorescence intensity (a.u.)
8,CGCCTCCGCTTGCCGCTGCAGCTGCACTCGCCGACACCCGCGGAGTCACCTAGTGCAG,8070 fluorescence intensity (a.u.)
9,CAATAATTCTGCCCCTTGTCCGCACGCACGCGCCCAGCTCCGGAGTCACCTAGTGCAG,8640 fluorescence intensity (a.u.)
10,CTTCATACTTGCTTCACCTGGCTCAGGGCCTCTGGCGCTCCGGAGTCACCTAGTGCAG,8720 fluorescence intensity (a.u.)
11,GCGGTTGGGTTTGTGTGGTTTTTTTTGAAGGCGGAGTTGTCGGAGTCACCTAGTGCAG,12100 fluorescence intensity (a.u.)
12,GCTTCACTCATAGATGGTCACAATTTTCTCCAGAAGTTAACGGAGTCACCTAGTGCAG,8940 fluorescence intensity (a.u.)
13,GGTTAATCTCGTTTTACGTATCTTCTCAATCACCTCTTCACGGAGTCACCTAGTGCAG,10500 fluorescence intensity (a.u.)
14,ACTAGCCTGGAGCTTCTTCTTATGCTTCATCTGTTCTTCTCGGAGTCACCTAGTGCAG,10800 fluorescence intensity (a.u.)
15,CCATTGCCGACTCTCTTCCTCGCTTCCGGCCGACGGCCGCCGGAGTCACCTAGTGCAG,9550 fluorescence intensity (a.u.)
16,CTTACTTTACCATTGCGGGTGCTCTTAGAGTGTGTTCTTTCGGAGTCACCTAGTGCAG,10500 fluorescence intensity (a.u.)
17,AAACACTTTCCAATGCAACACAGCTAAGCTAGTAGTACTACGGAGTCACCTAGTGCAG,8430 fluorescence intensity (a.u.)
18,CAACCCATCCCACTCGCCCCTCAACCAAACACCTCTAAAACGGAGTCACCTAGTGCAG,9720 fluorescence intensity (a.u.)
19,GCAACTAGATCACATAATGAGTTTTCAGTTATATTTTAACCGGAGTCACCTAGTGCAG,8200 fluorescence intensity (a.u.)
20,ATTGTCCTTCGCGAACAGTGTTCACATCCATTTCATGTATCGGAGTCACCTAGTGCAG,13200 fluorescence intensity (a.u.)
21,CACACAAAGAACTAGCTCTCTCACCGTCACTGATACACCGCGGAGTCACCTAGTGCAG,9390 fluorescence intensity (a.u.)
22,TTCCTACATATGTGTGTACTGCGATTTTTTTTCTTCCTCACGGAGTCACCTAGTGCAG,12100 fluorescence intensity (a.u.)
23,CTCTCTCTATGCCATAATATAGGCACGGTCAAACTTAGCACGGAGTCACCTAGTGCAG,8730 fluorescence intensity (a.u.)
24,GACGTTCGTTCCTTGAGTTCAATCTCCGATTGGCGCGCGCCGGAGTCACCTAGTGCAG,11200 fluorescence intensity (a.u.)
25,CCCGCCGCGCGCGCGCGTCTCTCGTGCTCGGCTCCGCCGCCGGAGTCACCTAGTGCAG,8180 fluorescence intensity (a.u.)
26,AACCCCAAATTATCGTGTGATTATTTCCTGTTTGCAATTTCGGAGTCACCTAGTGCAG,8750 fluorescence intensity (a.u.)
27,TTCACCCACGCCACGCCGCCACCGCCTCGCTTTTCCTTCTCGGAGTCACCTAGTGCAG,10800 fluorescence intensity (a.u.)
